Patent US20060100431A1, “Biologically active compounds” (Amura Therapeutics Limited, priority 2002, published 2006)
Some results were stated once for a whole list of compounds, not compound by compound. Some ranges recur; such a range may be that of the whole group of compounds.

Each compound was assayed against T1, human cathepsin K (Homo sapiens, UniProt P43235) (assay: Cathepsin K peptidase activity assay (Ki)).
T1 construct: Dr. Boris Turk (Josef Stefan Institute, Ljubljana, Slovenia)
T1 sequence (P43235 115-329): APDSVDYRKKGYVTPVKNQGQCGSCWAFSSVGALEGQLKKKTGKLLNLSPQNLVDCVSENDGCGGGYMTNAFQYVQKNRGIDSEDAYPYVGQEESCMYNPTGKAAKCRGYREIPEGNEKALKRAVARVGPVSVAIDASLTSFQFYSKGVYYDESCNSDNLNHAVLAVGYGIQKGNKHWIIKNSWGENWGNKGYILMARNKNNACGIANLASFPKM
Format: biochemical
Procedure, shortened: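 Buffer: 10 mM bis-tris-propane pH 6.5, 1 mM EDTA, 5 mM 2-mercaptoethanol, 1 mM CaCl2; DMSO <1%. Ki assumed reversible, pure-competitive, from Ki^app=Ki(1+[So]/KM^app) by non-linear regression.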

SMILES	Ki, inhibitors of cathepsin K [nM]
CC(C)C[C@H](NC(=O)c1ccc(N(C)C)cc1)C(=O)N1CC[C@@H]2[C@H]1C(=O)CN2C(=O)[C@@H](N)CO [Example 206, (3aR,6aS)-N-{(1S)-1-[((2S)-2-Amino-3-hydroxy-propionyl)-6-oxo-hexahydro-pyrrolo[3,2-b]pyrrole-1-carbonyl]-3-methyl-butyl}-4-dimethylamino-benzamide]	1 to 5000
CC(C)C[C@H](NC(=O)c1ccc(-n2cccn2)cc1)C(=O)N1CC[C@@H]2[C@H]1C(=O)CN2C(=O)c1ccccc1 [Example 91, (3aR,6aS)-N-[(1S)-1-(4-Benzoyl-6-oxo-hexahydro-pyrrolo[3,2-b]pyrrole-1-carbonyl)-3-methyl-butyl]-4-pyrazol-1-yl-benzamide]	1 to 5000
CC(C)C[C@H](NC(=O)c1ccc(N(C)C)cc1)C(=O)N1CC[C@@H]2[C@H]1C(=O)CN2C(=O)C1(N)CCCC1 [Example 224]	1 to 5000
CC(C)C[C@H](NC(=O)OCc1ccccc1)C(=O)N1CC(=O)[C@@H]2[C@H]1CCN2C(=O)[C@H](CC(C)C)NC(=O)c1ccc(N(C)C)cc1 [Example 37, (3aS,6aR)-((1S)-1-{4-[(2S)-2-(4-Dimethylamino-benzoylamino)-4-methyl-pentanoyl]-3-oxo-hexahydro-pyrrolo[3,2-b]pyrrole-1-carbonyl}-3-methyl-butyl)-carbamic acid benzyl ester]	1 to 5000
CC(C)C[C@H](NC(=O)c1ccc(N(C)C)cc1)C(=O)N1CC[C@@H]2[C@H]1C(=O)CN2C(=O)c1ccc(C(F)(F)F)cc1 [Example 69, (3aR,6aS)-4-Dimethylamino-N-{(1S)-3-methyl-1-[6-oxo-4-(4 trifluoromethyl-benzoyl)-hexahydro-pyrrolo[3,2-b]pyrrole-1-carbonyl]-butyl}-benzamide]	1 to 5000
CC(C)C[C@H](NC(=O)c1ccc(C(C)(C)C)cc1)C(=O)N1CC[C@@H]2[C@H]1C(=O)CN2C(=O)c1cncc(-c2cccs2)c1 [Example 35, (3aR,6aS)-4-tert-Butyl-N-{(1S)-3-methyl-1-[6-oxo-4-(5-thiophen-2-yl-pyridine-3-carbonyl)-hexahydro-pyrrolo[3,2-b]pyrrole-1-carbonyl]-butyl}-benzamide]	1 to 5000
CC(C)C[C@H](NC(=O)c1ccc(N(C)C)cc1)C(=O)N1CC[C@@H]2[C@H]1C(=O)CN2C(=O)CC1CCNCC1 [Example 240]	1 to 5000
CC(C)C[C@H](NC(=O)c1ccc2cc[nH]c2c1)C(=O)N1CC[C@@H]2[C@H]1C(=O)CN2C(=O)c1ccccc1 [Example 88, (3aR,6aS)-1H-Indole-6-carboxylic acid [(1S)-1-(4-benzoyl-6-oxo-hexahydro-pyrrolo[3,2-b]pyrrole-1-carbonyl)-3-methyl-butyl]-amide]	1 to 5000
CC(C)C[C@H](NC(=O)c1ccc(N(C)C)cc1)C(=O)N1CC[C@@H]2[C@H]1C(=O)CN2C(=O)c1cccc([N+](=O)[O-])c1 [Example 46, (3aR,6aS)-4-Dimethylamino-N-{(1S)-3-methyl-1-[4-(3-nitro-benzoyl)-6-oxo-hexahydro-pyrrolo[3,2-b]pyrrole-1-carbonyl]-butyl}-benzamide]	1 to 5000
CN[C@@H](CC(C)C)C(=O)N1CC(=O)[C@@H]2[C@H]1CCN2C(=O)[C@H](CC(C)C)NC(=O)c1ccc(N(C)C)cc1 [Example 220, (3aR,6aS)-4-Dimethylamino-N-{(1S)-3-methyl-1-[4-((2S)-4-methyl-2-methylamino-pentanoyl)-6-oxo-hexahydro-pyrrolo[3,2-b]pyrrole-1-carbonyl]-butyl}-benzamide]	1 to 5000
CC(C)CCC(=O)N1CC(=O)[C@@H]2[C@H]1CCN2C(=O)[C@H](CC(C)C)NC(=O)c1ccc(C(C)(C)C)cc1 [Example 191, (3aR,6aS)-4-tert-Butyl-N-{(1S)-3-methyl-1-[4-(4-methyl-pentanoyl)-6-oxo-hexahydro-pyrrolo[3,2-b]pyrrole-1-carbonyl]-butyl}-benzamide]	1 to 5000
